Reference: article PMC5874046

Protein sequences, listed by entry. Tags and fused reporters are not part of them. Lines headed by an entry give the natural chain unless they say otherwise; changes in a name come on top.
UniProt P29341, whole entry: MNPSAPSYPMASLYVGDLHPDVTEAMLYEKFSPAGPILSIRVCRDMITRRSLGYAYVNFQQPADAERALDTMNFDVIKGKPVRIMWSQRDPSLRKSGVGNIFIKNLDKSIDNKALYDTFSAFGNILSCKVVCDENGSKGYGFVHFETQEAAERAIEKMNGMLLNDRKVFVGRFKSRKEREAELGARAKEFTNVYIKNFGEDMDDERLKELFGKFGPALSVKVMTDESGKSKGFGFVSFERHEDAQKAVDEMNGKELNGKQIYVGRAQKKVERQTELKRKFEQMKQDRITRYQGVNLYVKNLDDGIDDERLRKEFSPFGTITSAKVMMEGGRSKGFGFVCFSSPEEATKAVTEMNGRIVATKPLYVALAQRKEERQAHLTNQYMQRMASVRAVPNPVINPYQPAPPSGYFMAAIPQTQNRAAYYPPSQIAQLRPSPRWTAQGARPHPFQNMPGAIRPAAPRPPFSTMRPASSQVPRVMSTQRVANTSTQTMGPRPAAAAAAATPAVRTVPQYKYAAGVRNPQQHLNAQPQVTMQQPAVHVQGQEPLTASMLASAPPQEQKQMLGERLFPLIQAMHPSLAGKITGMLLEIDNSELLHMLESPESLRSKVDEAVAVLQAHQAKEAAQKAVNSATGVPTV
UniProt Q61701: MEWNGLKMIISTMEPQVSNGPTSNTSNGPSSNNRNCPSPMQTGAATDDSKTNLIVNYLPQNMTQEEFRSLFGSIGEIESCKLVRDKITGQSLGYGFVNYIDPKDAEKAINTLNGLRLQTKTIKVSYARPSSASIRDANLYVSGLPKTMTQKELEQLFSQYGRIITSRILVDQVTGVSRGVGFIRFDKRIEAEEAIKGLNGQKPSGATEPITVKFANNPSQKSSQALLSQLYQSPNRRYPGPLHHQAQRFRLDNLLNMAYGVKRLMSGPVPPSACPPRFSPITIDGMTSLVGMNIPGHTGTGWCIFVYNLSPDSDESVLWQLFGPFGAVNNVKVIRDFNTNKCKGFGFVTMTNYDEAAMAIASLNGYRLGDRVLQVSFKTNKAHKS

Columns and labels:
His-PABP [1] = assay: competition with a labelled probe; conditions: competitor against labeled Ins2L, EMSA: 6% native PAGE, 0.5x TBE, 4°C (binding buffer as in cited work), recombinant protein, protein details: His, letters put together from the description
His-PABP [2] = assay: EMSA; conditions: EMSA: 6% native PAGE, 0.5x TBE, 4°C (binding buffer as in cited work); recombinant protein; protein details: His; label: radiolabel (probe), unlabeled competitor; letters put together from the description
[3] = target: endogenous PABP (mouse (βTC6 or MIN6 extract)) (UniProt P29341); assay: competition with a labelled probe; conditions: 10-fold excess competitor in biotin-L pull-down, EMSA: 6% native PAGE, 0.5x TBE, 4°C (binding buffer as in cited work), protein in an extract, letters put together from the description
[4] = target: endogenous HuD (mouse (βTC6 or MIN6 extract)) (UniProt Q61701); assay: pull-down; conditions: not significantly affected by L or S competitor; biotin pull-down: 5 mM Tris pH 7.5, 15 mM KCl, 5 mM MgCl2, 0.25 mM DTT, 10% glycerol, 20 U RNasin, 4°C 2 h; protein in an extract; letters put together from the description
[5] = target: endogenous PABP (mouse (βTC6 or MIN6 extract)) (UniProt P29341); assay: pull-down; conditions: biotin pull-down: 5 mM Tris pH 7.5, 15 mM KCl, 5 mM MgCl2, 0.25 mM DTT, 10% glycerol, 20 U RNasin, 4°C 2 h; protein in an extract; letters put together from the description
[6] = label: radiolabel (probe), unlabeled competitor

GGGAGCAAGCAGGAAGCCUAUCUUC [L3]: no binding (His-PABP [1]; label: unlabeled competitor).
GGGAGCCCUAAGUGAUCCGCUACAA [L1]: no binding (His-PABP [1]; label: unlabeled competitor).
“GGGAGCCCUAAGUGAUCCGCUACAAUCAAAAACCAUCAGCAAGCAGGAAGCCUAUCUUCCAGGUUAUUGUUUCAAC [Ins2L 5'UTR (L)]”: binds (His-PABP [2]); binds [3, 6].
“GGGAGCCCUAAGUGAUCCGCUACAAUCAAAAACCAUCAGCAAGCAGGAAGCCUAUCUUCCAGGUUAUUGUUUCAAC [biotin-Ins2L 5'UTR]”: binds [4]; binds [5].
“GGGAGCCCUAAGUGAUCCGCUACAAUCAAAAACCAUCAGCAAGCAGGAAGGUUAUUGUUUCAAC [Ins2S 5'UTR (S)]”: binds more weakly ([3]; label: unlabeled competitor); binds more weakly (His-PABP [1]; label: unlabeled competitor).
“GGGAGCCCUAAGUGAUCCGCUACAAUCAAAAACCAUCAGCAAGCAGGAAGGUUAUUGUUUCAAC [biotin-Ins2S 5'UTR]”: binds more weakly [5].
GGGUACAAUCAAAAACCAUCAGCAA [L2]: binds (His-PABP [2]); binds (His-PABP [1]; [6]).
GGGUCUUCCAGGUUAUUGUUUCAAC [L4]: no binding (His-PABP [1]; label: unlabeled competitor).

Construct, isoform or probe ends are uncertain for at least one entry. For part of these data: Negatives hold for the conditions tested. For part of these data: Weaker means in comparison with the reference protein, sequence or condition of that experiment. For part of these data: Where cells or extracts were used, other partners may take part.
